The labels stand for the following.
B1: IKKε (protein, UniProt Q14164 1-716)
chain: MQSTANYLWHTDDLLGQGATASVYKARNKKSGELVAVKVFNTTSYLRPREVQVREFEVLRKLNHQNIVKLFAVEETGGSRQKVLVMEYCSSGSLLSVLESPENAFGLPEDEFLVVLRCVVAGMNHLRENGIVHRDIKPGNIMRLVGEEGQSIYKLTDFGAARELDDDEKFVSVYGTEEYLHPDMYERAVLRKPQQKAFGVTVDLWSIGVTLYHAATGSLPFIPFGGPRRNKEIMYRITTEKPAGAIAGAQRRENGPLEWSYTLPITCQLSLGLQSQLVPILANILEVEQAKCWGFDQFFAETSDILQRVVVHVFSLSQAVLHHIYIHAHNTIAIFQEAVHKQTSVAPRHQEYLFEGHLCVLEPSVSAQHIAHTTASSPLTLFSTAIPKGLAFRDPALDVPKFVPKVDLQADYNTAKGVLGAGYQALRLARALLDGQELMFRGLHWVMEVLQATCRRTLEVARTSLLYLSSSLGTERFSSVAGTPEIQELKAAAELRSRLRTLAEVLSRCSQNITETQESLSSLNRELVKSRDQVHEDRSIQQIQCCLDKMNFIYKQFKKSRMRPGLGYNEEQIHKLDKVNFSHLAKRLLQVFQEECVQKYQASLVTHGKRMRVVHETRNHLRLVGCSVAACNTEAQGVQESLSKLLEELSHQLLQDRAKGAQASPPPIAPYPSPTRKDLLLHMQELCEGMKLLASDLLDNNRIIERLNRVPAPPDV
B2: TAK1 (protein, UniProt O43318 1-606)
chain: MSTASAASSSSSSSAGEMIEAPSQVLNFEEIDYKEIEVEEVVGRGAFGVVCKAKWRAKDVAIKQIESESERKAFIVELRQLSRVNHPNIVKLYGACLNPVCLVMEYAEGGSLYNVLHGAEPLPYYTAAHAMSWCLQCSQGVAYLHSMQPKALIHRDLKPPNLLLVAGGTVLKICDFGTACDIQTHMTNNKGSAAWMAPEVFEGSNYSEKCDVFSWGIILWEVITRRKPFDEIGGPAFRIMWAVHNGTRPPLIKNLPKPIESLMTRCWSKDPSQRPSMEEIVKIMTHLMRYFPGADEPLQYPCQYSDEGQSNSATSTGSFMDIASTNTSNKSDTNMEQVPATNDTIKRLESKLLKNQAKQQSESGRLSLGASRGSSVESLPPTSEGKRMSADMSEIEARIAATTAYSKPKRGHRKTASFGNILDVPEIVISGNGQPRRRSIQDLTVTGTEPGQVSSRSSSPSVRMITTSGPTSEKPTRSHPWTPDDSTDTNGSDNSIPMAYLTLDHQLQPLAPCPNSKESMAVFEQHCKMAQEYMKVQTEIALLLQRKQELVAELDQDEKDQQNTSRLVQEHKKLLDENKSLSTYYQQCKKQLEVIRSQQQKRQGTS

By UniProt entry, the sequences of proteins in these tests, tags left out. Residues count along the entry.
UniProt P01375, residues 77-233: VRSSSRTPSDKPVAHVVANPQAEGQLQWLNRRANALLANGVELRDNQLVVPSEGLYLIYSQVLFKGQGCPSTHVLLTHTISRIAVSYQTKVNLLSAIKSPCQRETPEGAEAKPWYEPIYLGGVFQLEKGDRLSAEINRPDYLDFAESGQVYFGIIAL
UniProt Q9UHD2: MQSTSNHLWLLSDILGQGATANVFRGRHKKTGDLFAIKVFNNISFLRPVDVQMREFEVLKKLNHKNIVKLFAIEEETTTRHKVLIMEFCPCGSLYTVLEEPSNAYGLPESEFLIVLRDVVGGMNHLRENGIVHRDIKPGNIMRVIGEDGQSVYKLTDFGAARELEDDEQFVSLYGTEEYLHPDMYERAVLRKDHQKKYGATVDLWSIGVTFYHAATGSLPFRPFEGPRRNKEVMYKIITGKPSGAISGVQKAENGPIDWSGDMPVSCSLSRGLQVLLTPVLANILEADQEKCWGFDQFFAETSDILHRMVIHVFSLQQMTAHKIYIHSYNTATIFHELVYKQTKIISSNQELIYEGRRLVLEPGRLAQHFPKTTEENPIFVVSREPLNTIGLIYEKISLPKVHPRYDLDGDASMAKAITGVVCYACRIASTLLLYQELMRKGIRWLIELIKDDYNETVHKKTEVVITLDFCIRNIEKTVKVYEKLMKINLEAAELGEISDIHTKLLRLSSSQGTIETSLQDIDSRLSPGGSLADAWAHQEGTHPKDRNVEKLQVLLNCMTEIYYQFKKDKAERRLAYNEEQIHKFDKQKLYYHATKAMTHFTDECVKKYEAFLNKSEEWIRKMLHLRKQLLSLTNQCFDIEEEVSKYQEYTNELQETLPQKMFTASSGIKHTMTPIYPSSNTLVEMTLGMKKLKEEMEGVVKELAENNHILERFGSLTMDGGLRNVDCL

No constants are given. Whether binding was seen depends on the method and setting. In cells and extracts the contact can be indirect. A yes stands for co-enrichment or nearness to the bait. Other partners may have been found.

The assay deals with biotinylated TNF (UniProt P01375). The assay is described as follows: affinity purification with mass spectrometry; BLM or D10 melanoma cells incubated with 100 ng/mL biotinylated TNF for 10 min, lysed (30 mM Tris-HCl pH 7.4, 120 mM NaCl, 2 mM EDTA, 2 mM KCl, 1% Triton X-100), streptavidin magnetic beads 1 h at 4 °C, LC-MS (DDA and SRM); unlabeled TNF as negative control; cells sgCtrl, sgTRAF2, sgRNF31 or sgTBK1+sgIKKε, with or without Birinapant or HOPIN-8; only the target purified.
In the case of TBK1 (from UniProt Q9UHD2 1-729), the binding result is “binds”.

With B1, the binding result is “binds”.

With B2, the binding entry was “binds”.

For the origin of these results see paper PMC12663160.
